In publication PMC12436189 one finds binding data, which are given here for one molecule.

In assay [1] the target is MUC1 C-terminal subunit (MUC1-C) (human (endogenous in YCCEL1, SNU-719 and AGS)). Kind of assay: co-IP; YCCEL1 and SNU-719 cell lysates precipitated with anti-MUC1-C or a control IgG (Pierce Classic Magnetic Co-IP Kit); precipitates immunoblotted. Background: Immunoblotting shows a protein as a band on a membrane.
For assay [2] the target is unchanged. Kind of assay: co-IP; lysates of EBV-negative AGS cells transfected to express EBNA1 precipitated with anti-MUC1-C or a control IgG; precipitates immunoblotted.

No constants are given. Whether binding was seen depends on the method and setting. In cells and extracts the contact can be indirect. A result given as binding can be weak or reduced; the word gives no strength.

B1: PLOD1 lysine hydroxylase (enzyme, UniProt Q02809 19-727)
chain: KGDAKPEDNLLVLTVATKETEGFRRFKRSAQFFNYKIQALGLGEDWNVEKGTSAGGGQKVRLLKKALEKHADKEDLVILFADSYDVLFASGPRELLKKFRQARSQVVFSAEELIYPDRRLETKYPVVSDGKRFLGSGGFIGYAPNLSKLVAEWEGQDSDSDQLFYTKIFLDPEKREQINITLDHRCRIFQNLDGALDEVVLKFEMGHVRARNLAYDTLPVLIHGNGPTKLQLNYLGNYIPRFWTFETGCTVCDEGLRSLKGIGDEALPTVLVGVFIEQPTPFVSLFFQRLLRLHYPQKHMRLFIHNHEQHHKAQVEEFLAQHGSEYQSVKLVGPEVRMANADARNMGADLCRQDRSCTYYFSVDADVALTEPNSLRLLIQQNKNVIAPLMTRHGRLWSNFWGALSADGYYARSEDYVDIVQGRRVGVWNVPYISNIYLIKGSALRGELQSSDLFHHSKLDPDMAFCANIRQQDVFMFLTNRHTLGHLLSLDSYRTTHLHNDLWEVFSNPEDWKEKYIHQNYTKALAGKLVETPCPDVYWFPIFTEVACDELVEEMEHFGQWSLGNNKDNRIQGGYENVPTIDIHMNQIGFEREWHKFLLEYIAPMTEKLYPGYYTRAQFDLAFVVRYKPDEQPSLMPHHDASTFTINIALNRVGVDYEGGGCRFLRYNCSIRAPRKGWTLMHPGRLTHYHEGLPTTRGTRYIAVSFVDP
In the case of B1, the binding result in assay [1] and in assay [2] was “binds” in each case.
